Target: TcpC TIR (Escherichia coli O6:H1, UniProt A0A0H2V8B5)
Type: biochemical, uropathogenic Escherichia coli
Conditions: Pharmakon library screen, 25 μM compound, 10 μM NAD, 37° C. 60 min; hits retested for dose dependent inhibition
Method: NRK1-HEK293T cells were seeded onto 150 cm2 plates at 20×10^6 cells per plate. […] Forty-eight hours after transfection, cells were harvested, pelleted by centrifugation at 1,000 rpm (Sorvall ST 16R centrifuge, Thermo Fisher), and washed once with cold PBS (0.01 M phosphate buffered saline NaCl 0.138 M; KCl 0.0027 M; pH 7.4). The cells were resuspended in PBS with protease inhibitors (Complete protease inhibitor cocktail, Roche product #11873580001) and cell lysates were prepared by sonication (Branson Sonifer 450, output=3, 20 episodes of stroke). […] Protein concentration was determined by the Bicinchoninic (BCA) method and used to normalize lysate concentrations.
The reaction was incubated at 37° C. for 60 min, and then stopped by addition of 180 μl of 0.55 M perchloric acid (HClO4) and placed on ice. After 10 min on ice, the reaction plates were centrifuged for 10 min at 4,000 rpm (Sorvall ST 16R centrifuge). The supernatant (120 μl) was transferred to a new plate and 10 μl of 3M K2CO3 was added to neutralize the solution. Precipitated salts were removed by centrifugation 10 min at 4,000 rpm (Sorvall ST 16R centrifuge). […] This ratio was compared to the ratio generated in the absence of compound inhibitors.
Positive hits were individually purchased from Sigma and tested its dose dependent inhibition in conditions described above. […]

Chains of the proteins cited; added tags and fusions are not shown. Residues count along the entry.
UniProt A0A0H2V8B5, 169-303 limits assumed: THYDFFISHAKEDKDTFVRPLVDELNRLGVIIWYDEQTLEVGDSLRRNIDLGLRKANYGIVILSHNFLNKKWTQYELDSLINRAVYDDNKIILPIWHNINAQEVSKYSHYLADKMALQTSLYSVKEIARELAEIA

SMILES: CCCCCCCCCCCCCCCC[n+]1ccccc1 [cetylpyridium, Cetylpyridinium]
- inhibitor of TcpC TIR NADase activity (screen hit, NAD/ADPR ratio >2): inhibitors
